Test results taken from the supplement of paper PMC12578635.
± gives the standard deviation of the averaged measurements. This is one part of the list. Most values come without repeats; read them as rough.

The compounds below were run on RAW 264.7 macrophages infected with S. aureus JE2-lux (assay: host macrophage viability (CellTiter-Fluor) relative to DMSO vehicle; higher = more viable host cells). Details: 10 µM; treatment time 4 h; gentamicin 50 µg/ml.

Row | SMILES | host macrophage viability [%]
1 | CCc1ccc(NC(=O)C2CC3CSCN3C23C(=O)N(CC)c2ccccc23)cc1 (stereo not given) | 112
2 | CCSc1nsc(NC(=O)Nc2ccc(OC)c(OC)c2)n1 | 93
3 | COC(=O)C1=C(NC(=O)c2cccc([N+](=O)[O-])c2)CCS1 | 105
4 | O=C(NCc1cccnc1)c1cnc(N2CCCCC2)c2ccccc12 | 120
5 | O=C(NCc1ccccn1)C(=O)NCC(c1cccs1)N1CCc2ccccc21 (stereo not given) | 114
6 | CC(=O)N(Cc1cccnc1)c1nc2cc3c(cc2s1)OCCO3 | 116
7 | Cc1ccc(C)c(NC(=O)Cn2c(=O)n(Cc3ccco3)c(=O)c3sc4ccccc4c32)c1 | 118
8 | CCCSc1nc2c(c(=O)[nH]1)C(c1ccc(C)o1)C1=C(CCCC1=O)N2 (stereo not given) | 128
9 | COC(=O)c1c(-c2ccc(F)cc2)noc1Nc1cc(C)ccc1OC | 101
10 | Cn1c(=O)c2c(nc3oc(-c4ccc(F)cc4)cn32)n(C)c1=O | 114 ± 8.3
11 | O=C1CCc2cc(S(=O)(=O)N3CCCC(CN4CCCC4)C3)ccc2N1 (stereo not given) | 97.9
12 | CCCC1N=C2c3ccccc3N=C(SC(C)C(=O)Nc3ccccc3)N2C1=O (stereo not given) | 114
13 | COc1ccc2c(c1OC)C(=O)N(c1n[nH]c(SC)n1)C2=O | 99.4
14 | CCOC(=O)c1sc2nc(NC(=O)c3nc4ccccc4s3)sc2c1C | 113
15 | CCc1nc2ccc(C(=O)NCc3n[nH]c4c3CCCC4)cc2nc1CC | 114
16 | COc1ccc(C(=O)C2CCN(CC(=O)Nc3ccc4c(c3)OCCO4)CC2)cc1 | 129
17 | CCSc1nc2c(c(=O)[nH]1)C(c1cccc(Br)c1)C(C(=O)OC(C)C)=C(C)N2 (stereo not given) | 104
18 | Cc1nc(C#N)c(N/N=C/C=C/c2ccccc2)o1 | 104
19 | CCn1c(N2CCN(CC(=O)Nc3c(C)cccc3C)CC2)nc2ccccc21 | 118
20 | O=C(CSc1ncnc2c1cnn2-c1ccc(Cl)cc1)Nc1ccc2c(c1)OCCO2 | 114
21 | Cc1ccc2c(cnn2C(=O)NCCc2ccccc2)c1 | 98.7
22 | Cc1ccc(Cn2c(CCCC(=O)NCCN(C)C)nc3cccnc32)cc1 | 118
23 | CCOc1ccccc1NC(=O)c1nn(C)c(C(F)(F)F)c1Cl | 108
24 | Cc1ccc(C)c(N2CCN(c3c4c(nc5nc(C)nn35)CCCC4)CC2)c1 | 119
25 | c1ccn(-c2ncnc3sc4c(c23)CCCC4)c1 | 122
26 | O=C(CN1C(=O)c2cccc3cccc(c23)C1=O)Nc1nc2ccccc2s1 | 114
27 | Cc1c(Cl)ccc2sc(N3CCN(C(=O)/C=C/c4cccc([N+](=O)[O-])c4)CC3)nc12 | 104

Row | SMILES | host macrophage viability [%]
28 | COc1ccc(OC)c(S(=O)(=O)NC(=N)NCCc2ccccc2OC)c1 | 112
29 | O=C1c2ccccc2C(=O)N1CNc1ccccc1Cl | 118 ± 12
30 | COC(=O)c1ccccc1NC(=O)CSc1nc(N)cc(=O)[nH]1 | 98.9
31 | Cc1cc(-c2csc(S(=O)(=O)N3CCC(Cc4ccccc4)CC3)c2)on1 | 97.3
32 | Cc1nc2cccc(NC(=O)COc3ncnc4ccccc34)c2[nH]1 | 124
33 | CN(Cc1ccccc1)C(=O)CCn1cnc2c(-c3ccc(F)cc3)noc2c1=O | 90.8
34 | S=C(Nc1ccccc1)N1CCC(n2cnc3ccccc32)CC1 | 121
35 | CCn1c(=O)c(N2CCN(C(=O)COc3ccc(F)cc3)CC2)c(C)n(-c2ccccc2)c1=O | 115
36 | N#Cc1c(NC(=O)CCSCCC(=O)Nc2sc3c(c2C#N)CCC3)sc2c1CCC2 | 131
37 | O=C(NCc1cccc(F)c1)c1cnn2c(=O)c3c([nH]c12)CCCC3 | 110
38 | O=C(NCc1ccc(F)cc1)C(=O)c1c[nH]c2ccccc12 | 121 ± 13
39 | CC(=O)N1CCCN(C(=O)c2ncoc2-c2ccc(F)cc2)CC1 | 93.1
40 | Cc1nc(N2CCC(C(=O)NCCc3ccc(Cl)cc3)CC2)c2c(C)c(C)oc2n1 | 132
41 | Cc1cccc(C2CCCN2C(=O)c2cnn3cc(Br)cnc23)c1 (stereo not given) | 119
42 | COC(=O)c1ccc(C(=O)Nc2ccc(N3CCC(C)CC3)c(C(N)=O)c2)s1 | 82.4
43 | S=C(NCc1ccccc1)N1CCCC(c2nc3ccccc3[nH]2)C1 (stereo not given) | 118
44 | O=C(c1c(-c2ccccc2)nnc2ccccc12)N1CC=C(c2ccccc2)CC1 | 116
45 | O=C(CSc1nc2ccccc2o1)N1CCc2ccccc21 | 108
46 | CCOC(=O)c1ccccc1NC(=O)COc1cc(=O)n(-c2ccccc2Cl)nc1C(=O)OCC | 122
47 | Cc1nc(OCC(=O)NCc2cccnc2)c2c(C)c(C)oc2n1 | 120
48 | CCN(CC)c1nc(N2CCOCC2)c2cnn(C)c2n1 | 122
49 | O=S(=O)(c1ccc(-c2noc(-c3cc4cc(Cl)ccc4[nH]3)n2)cc1)N1CCCC1 | 143
50 | O=C(NCCc1ccc(Cl)cc1)C(=O)Nc1ccc(F)c(F)c1 | 113
51 | COC(=O)Cn1/c(=N/C(=O)CSCC(=O)Nc2cc(C)on2)sc2cc(OC)ccc21 | 117
52 | Cn1ncc2c1CCc1sc(NC(=O)COCC3CCCCO3)nc1-2 (stereo not given) | 117
53 | Cc1cccc2cc(CN(Cc3ccc4c(c3)OCO4)C(=O)NCc3ccccc3)c3nnnn3c12 | 120
54 | COc1ccc(-c2cnnn2-c2ccc(NC(=O)c3cc4ccccc4oc3=O)cc2)cc1OC | 127

Row | SMILES | host macrophage viability [%]
55 | COC(=O)c1ccc(CSc2ncnc3c2nnn3-c2ccc(OC)cc2)o1 | 115 ± 9.3
56 | O=C(CN1C(=O)CCC1=O)Nc1ncc(S(=O)(=O)c2ccc([N+](=O)[O-])cc2)s1 | 121
57 | Cn1c(=O)n(CC(=O)N2CCCC(c3ccccc3)C2)c2cccnc21 (stereo not given) | 105
58 | O=C(CCCN1C(=O)c2cccc3cccc(c23)C1=O)Nc1ccon1 | 114
59 | Cc1cc(C)c2cc(CN(C(=O)c3cnccn3)C3CCCC3)c(Cl)nc2c1 | 99.9
60 | O=C(CSc1ncc(CO)n1Cc1ccccc1)Nc1nccs1 | 126
61 | O=C1c2cccc3cccc(c23)C(=O)N1CCc1ccc(S(=O)(=O)N2CCCCC2)cc1 | 125
62 | CCn1c2ccccc2n2c(=O)n(CC(=O)NC(C)(C)C)nc12 | 108
63 | COc1ccc(CNc2nc3c(S(=O)(=O)c4ccc(F)cc4)nnn3c3ccccc23)cc1 | 123
64 | O=C(C1=C(O)C(=O)N(CCCn2ccnc2)C1c1ccccn1)c1ccccc1 (stereo not given) | 101
65 | Nc1nc(SCCCC(=O)NC2CCCCC2)nc2sc3c(c12)CCCC3 | 117
66 | Oc1ccc(Nc2nc(-c3ccccc3)c3cc(Cl)ccc3n2)cc1 | 124
67 | Cc1cc(C)nc(SCC(=O)Nc2ncc(Cc3cccc4ccccc34)s2)n1 | 116
68 | CCOC(=O)c1ccccc1NC(=O)CSc1nc(=O)n(CCN(CC)CC)c2c1CCCC2 | 117
69 | COc1cccc(C(=O)N2CC(=O)Nc3ccc(Cl)cc3C2c2ccc(F)cc2)c1OC (stereo not given) | 110
70 | Cc1cn2c3c(=O)n(C/C=C/c4ccccc4)c(=O)n(C)c3nc2n1-c1ccccc1F | 116
71 | Cc1ccc(Cc2nnc(-c3cccc(NS(=O)(=O)c4ccc(N5CCCC5=O)cc4)c3)o2)cc1 | 86.7
72 | COc1ccc(CNC(=O)Cn2nnc(-c3ccc(Cl)cc3)n2)cc1 | 118
73 | Cc1ccc2cc(CCNC(=O)C3CC3)c(=O)[nH]c2c1C | 123
74 | O=c1[nH]c2ccccc2n1CCCSc1cccc2cccnc12 | 118
75 | Cc1ccccc1NC(=O)NC1CC2CCC(C1)N2Cc1ccccc1 (stereo not given) | 123
76 | Brc1ccc2[nH]c3nc(SCc4nc5ccccc5[nH]4)nnc3c2c1 | 104
77 | Cc1ccc(C2C(C#N)=C(SCC(=O)N3c4ccccc4CC3C)NC3=C2C(=O)CCC3)o1 (stereo not given) | 108
78 | COC(=O)c1ccc2c(c1)C1CC(C)(O2)N(c2ccc(OC)c(OC)c2)C(=O)N1 (stereo not given) | 102
79 | COc1ccc(OC)c(NS(=O)(=O)c2ccc3[nH]c(=O)[nH]c3c2)c1 | 117
80 | CCN1CCN(c2nc(N3CCN(C(=O)c4ccco4)CC3)nc3c2cnn3C)CC1 | 111
81 | Cc1ccc(C(=O)Nc2ccccc2-c2nc3ccccc3[nH]c2=O)cc1[N+](=O)[O-] | 131

A draw from above in order of length of the SMILES, descending.
Row | SMILES | host macrophage viability [%]
7 | Cc1ccc(C)c(NC(=O)Cn2c(=O)n(Cc3ccco3)c(=O)c3sc4ccccc4c32)c1 | 118
70 | Cc1cn2c3c(=O)n(C/C=C/c4ccccc4)c(=O)n(C)c3nc2n1-c1ccccc1F | 116
42 | COC(=O)c1ccc(C(=O)Nc2ccc(N3CCC(C)CC3)c(C(N)=O)c2)s1 | 82.4
67 | Cc1cc(C)nc(SCC(=O)Nc2ncc(Cc3cccc4ccccc34)s2)n1 | 116

Next results

Row | SMILES | host macrophage viability [%]
82 | COc1ccc(OC)c2[nH]c(=O)c(CCNC(=O)c3ccc(Cl)c([N+](=O)[O-])c3)cc12 | 123
83 | COc1ccc2ncc(C(=O)NC3CCCC3)c(O)c2c1 | 121
84 | Cc1cc(Br)ccc1NS(=O)(=O)c1c[nH]c(=O)[nH]c1=O | 117
85 | CC(=O)c1ccc(C(=O)N(Cc2ccncc2)c2nc3c(C)ccc(Cl)c3s2)cc1 | 106
86 | Cc1ccc(C)c(NC(=O)CS(=O)(=O)c2cn(C)c3ccccc23)c1 | 126
87 | O=C(COc1ncnc2ccccc12)Nc1cccc(-c2csnn2)c1 | 108
88 | CC(CNC(=O)Cn1c(-c2cccs2)cc2cccnc21)n1cncn1 (stereo not given) | 124
89 | N#CC1=C(S)N(c2ccc(F)cc2)C(c2ccco2)NC1=O (stereo not given) | 112
90 | COc1ccc2c(O)c(C(=O)NCCc3ccccc3)cnc2c1 | 108
91 | CC(Oc1ccccc1)C(=O)N1CCN=C1SCc1cccnc1 (stereo not given) | 110 ± 4.8
92 | Cc1cccc(NC(=O)CSc2nc3c(c(-c4ccco4)c2C#N)CCCC3)c1 | 134
93 | Cc1cccc(-c2nc(N)n(C(=O)c3ccco3)n2)c1 | 109
94 | CCOc1ccc(N2CC(NC(=O)Nc3ncccc3C)CC2=O)cc1 (stereo not given) | 107
95 | COc1cc(NC(=O)c2nn(C)c(C(F)(F)F)c2Cl)cc(OC)c1 | 118
96 | O=C1Cc2cc(NC(=O)c3ccccc3Br)ccc2N1 | 116
97 | CCC(SC1=Nc2ccccc2C2=NC(C(C)C)C(=O)N12)C(=O)Nc1ccc(OC)cc1OC (stereo not given) | 98.2
98 | NC(=O)CSc1ncnc2c1oc1ccccc12 | 99.1
99 | Cc1ccc(Cl)cc1NC(=O)C(C)Sc1nc2ncccc2o1 (stereo not given) | 127
100 | Cc1oc(-c2ccno2)cc1S(=O)(=O)Nc1ccc2c(c1)OCO2 | 117
101 | CC1(C)CC(=O)C2=C(C1)Nc1[nH]c(=O)[nH]c(=O)c1C2c1ccc(-c2cccc(C(F)(F)F)c2)o1 (stereo not given) | 124
102 | COc1cc2cc3c(N)c(C(=O)N4c5ccccc5CC4C)sc3nc2cc1OC (stereo not given) | 116
103 | COCCn1c2ccccc2n2c(=O)n(CC(=O)NC3CCCC3)nc12 | 119
104 | Cc1c(NC(=S)NCCc2ccccc2)c(=O)n(-c2ccccc2)n1C | 108
105 | CNC(=S)NCCc1cc2c(OC)ccc(OC)c2[nH]c1=O | 106 ± 5.3

Structural class: those above with a CF3 group.
Row | SMILES | host macrophage viability [%]
23 | CCOc1ccccc1NC(=O)c1nn(C)c(C(F)(F)F)c1Cl | 108
95 | COc1cc(NC(=O)c2nn(C)c(C(F)(F)F)c2Cl)cc(OC)c1 | 118
101 | CC1(C)CC(=O)C2=C(C1)Nc1[nH]c(=O)[nH]c(=O)c1C2c1ccc(-c2cccc(C(F)(F)F)c2)o1 (stereo not given) | 124
